# Data as given in patent publication US20120046195A1.
# These are yes or no findings as the source states them, for the method shown. Some entries that bind do so weakly or less than the wild type. Where a sequence is shown, tags or fusion partners need not be part of it.
# Target: purified recombinant Bcl-B produced without GST tag (human) (UniProt Q9HD36)
# Assay: SDS-PAGE, SDS-resistant dimer
binder,measurement,value
purified recombinant Bcl-B produced without GST tag (protein) MVDQLRERTTMADPLRERTELLLADYLGYCAREPGTPEPAPSTPEAAVLRSAAARLRQIHRSFFSAYLGYPGNRFELVALMADSVLSDSPGPTWGRVVTLVTFAGTLLERGPLVTARWKKWGFQPRLKEQEGDVARDCQRLVALLSSRLMGQHRAWLQAQGGWDGFCHFFRTPFPLAFWRKQLV,binding,binds
